# According to article PMC11986587:
# For at least one entry, the source does not settle the construct or the ends of the probe. At least one verdict rests on a figure or table, not on a statement of the authors. Where a protein sequence is shown, tags need not be part of it.
# Biological target: T1, BrRCO (UniProt A0ABQ7KTI8)
# T1 sequence (looked up, limits assumed): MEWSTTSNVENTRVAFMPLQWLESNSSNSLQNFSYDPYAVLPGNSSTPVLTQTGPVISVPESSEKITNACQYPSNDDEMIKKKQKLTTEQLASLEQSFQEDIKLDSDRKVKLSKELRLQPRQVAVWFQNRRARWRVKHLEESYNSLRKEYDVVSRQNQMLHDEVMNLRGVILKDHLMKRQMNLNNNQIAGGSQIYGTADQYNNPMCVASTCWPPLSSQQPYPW
# Assay: EMSA
# Conditions: unlabeled probe used as competitor; EMSA: room temperature, 30 min; non-denaturing 6% PAGE, 0.5x TBE, 80 V, 1 h, 4 C; binding buffer, salt and pH not given; recombinant protein; protein details: His (pET30a); label: 5' biotin
row,Sequence,binding result
1,AATTTTGATTATTATAGATG (double strand) [BrACP5 probe 2],binds
2,TTAATCAAATAATTCTGATT (double strand) [BrACP5 probe 1],binds
